Laboratory results: PubChem BioAssay AID1487 (National Center for Advancing Translational Sciences (NCATS), 2009)
Some of the results follow. Further columns of the screen follow, without active or inactive calls. Most of these compounds were active or inconclusive in the main read-out, so they are no random draw. Potencies come from curve fits of mixed quality, noted in brackets.

Test: qHTS Assay for Modulators of Lamin A Splicing
Settings: HeLa LMNA splicing GFP/RFP minigene ratio, 48 h
How it was run: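 Read-out is the ratio of GFP to DsRed2 object intensity, acquired by 488 nm laser-scanning cytometry on HeLa lamin A-EGFP minigene reporter cells. Compound incubation 48 hrs at 37 °C in Opti-MEM with 2% FBS; DMSO 0.5% final.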

[1] = measured here: RFP viability control channel
[2] = measured here: GFP splicing reporter channel

Row | Structure (SMILES) | AC50 [1] | AC50 [2]
1 | COc1cc(OC)cc(C(=O)Nc2cccc(-c3cn4ccsc4n3)c2)c1 | 6.31 µM [falling, partial curve, poor fit] | 
2 | CNC(=S)N(Cc1ccc2c(c1)OCO2)C1CC(=O)N(c2ccccc2)C1=O (stereo not given) | 31.6 µM [rising, single point] | 
3 | N#Cc1cc2c([nH]c1=O)CCCC2 |  | 0.0224 µM [falling, full curve, poor fit]
4 | Cc1ccccc1Nc1scc(-c2ccc(Cl)cc2)[n+]1-c1ccccc1C | 1.78 µM [rising, partial curve, poor fit] | 
5 | COc1ccc(CCN2C(=S)N(C)C(=O)C2CC(=O)Nc2ccc(F)cc2)cc1 (stereo not given) |  | 35.5 µM [rising, single point]
6 | Cc1cccc(C(=O)NCCNc2nc3cc(C)c(C)cc3cc2C)c1 | 25.1 µM [falling, single point] | 
7 | CCOC(=O)C1=C(C)Nc2ccccc2N=C1NC(=O)Cc1ccc(Cl)c(Cl)c1 | 12.6 µM [rising, single point] | 
8 | CCOc1cc(C#N)c(NC(=O)c2ccco2)cc1OCC | 0.316 µM [falling, partial curve, poor fit] | 
9 | Cc1cccc(Nc2nc(N3CCCCC3)nc(N3CCCCC3)n2)c1 | 17.8 µM [rising, single point] | 
10 | COc1ccccc1-c1c(C)nn2c(N3CCN(c4ccc(F)cc4)CC3)cc(C)nc12 |  | 0.794 µM [falling, full curve, poor fit]
11 | COc1cc2cc(CN(Cc3cccs3)C(=S)Nc3ccccc3)c(=O)[nH]c2cc1OC | 14.1 µM [rising, partial curve] | 
12 | COc1ccc(N2CCN(C(=S)NCc3ccccc3)CC2)cc1 |  | 0.794 µM [rising, full curve, poor fit]
13 | CC(=O)Nc1ccc2nc(SCCOc3ccccc3Cl)sc2c1 | 35.5 µM [falling, partial curve, poor fit] | 35.5 µM [falling, partial curve, poor fit]
14 | Cc1ccc(S(=O)(=O)NCC(=O)N2CCN(c3ccccc3F)CC2)cc1 | 15.8 µM [rising, single point] | 
15 | COc1ccccc1N1CCN(C(=O)CCCn2nc(C)c([N+](=O)[O-])c2C)CC1 |  | 35.5 µM [falling, partial curve, poor fit]
16 | O=C(c1ccc(-c2ccccc2)cc1)N1CCN(C(=O)c2ccco2)CC1 | 8.91 µM [rising, partial curve] | 8.91 µM [rising, partial curve]
17 | COc1cccc(C2=NN(C(=O)c3cccs3)C(O)(C(F)(F)F)C2)c1 (stereo not given) |  | 35.5 µM [rising, single point]
18 | C[C@]12CCC(=O)C=C1CCC1C2C(=O)C[C@]2(C)C1CC[C@]2(O)C(=O)CO (stereo not given in full) |  | 0.000891 µM [falling, full curve, poor fit]
19 | CCc1nnc2c3ccccc3nc(N3CCN(c4cc(Cl)ccc4C)CC3)n12 |  | 0.00316 µM [falling, full curve, poor fit]
20 | CCCc1cc(-n2ccnc2)n2c(nc3ccccc32)c1C#N | 35.5 µM [rising, single point] | 

2 of the compounds above, as comma-separated lines:
Row,Structure (SMILES),AC50 [1],AC50 [2]
2,CNC(=S)N(Cc1ccc2c(c1)OCO2)C1CC(=O)N(c2ccccc2)C1=O (stereo not given),"31.6 µM [rising, single point]",
11,COc1cc2cc(CN(Cc3cccs3)C(=S)Nc3ccccc3)c(=O)[nH]c2cc1OC,"14.1 µM [rising, partial curve]",

The listing continues:

Row | Structure (SMILES) | AC50 [1] | AC50 [2]
21 | Cc1nn(-c2ccccc2)c(C)c1/C=N/NC(=O)CSc1nnc(SCc2cccc3ccccc23)s1 | 12.6 µM [rising, partial curve] | 10 µM [rising, partial curve, poor fit]
22 | Cc1ccc(Cn2c(CO)cnc2SCC(=O)Nc2cccc(F)c2)cc1 |  | 0.501 µM [rising, full curve]
23 | CCn1c(COc2ccccc2)nnc1SCC(=O)Nc1cc(C)ccc1OC | 12.6 µM [rising, single point] | 
24 | O=S(=O)(Nc1cccc(-c2cn3cccnc3n2)c1)c1ccc(F)cc1 | 0.355 µM [rising, full curve] | 0.794 µM [rising, full curve, poor fit]
25 | O=C(Cn1c(-c2ccccc2)c[n+]2ccsc12)c1ccc(Br)cc1 | 10 µM [rising, partial curve, poor fit] | 
26 | NC(Cc1ccccc1)C(O)(c1ccccc1)c1ccccc1 (stereo not given) | 10 µM [falling, partial curve] | 
27 | COc1cc(NC(=O)c2ccc(Cl)cc2Cl)ccc1-c1cc2ccccc2oc1=O | 8.91 µM [falling, partial curve] | 17.8 µM [falling, partial curve, poor fit]
28 | COc1ccccc1-c1nccc(Nc2ccc(F)cc2)n1 |  | 6.31 µM [falling, single point]
29 | N#C/C(=C\c1ccc(F)cc1F)S(=O)(=O)c1ccccn1 | 0.0126 µM [falling, full curve, poor fit] | 
30 | CC(C)Nc1nnc(SCC(=O)Nc2ccc3c(c2)C(=O)c2ccccc2C3=O)s1 | 35.5 µM [rising, single point] | 31.6 µM [rising, single point]
31 | Cc1ccc(C(C)C)cc1OCCCCN1CCCC1 | 1 µM [rising, full curve, poor fit] | 14.1 µM [rising, partial curve]
32 | COc1cccc(NC(=S)N(CCCN2CCCC2)Cc2ccco2)c1 | 1.12 µM [rising, partial curve] | 0.501 µM [rising, full curve, poor fit]
33 | CC(C)(C)c1ccc(C(=O)Nc2nnc3n2CCS3)cc1 |  | 0.1 µM [rising, full curve, poor fit]
34 | COc1cc(/C=N/NC(=S)NCc2ccccc2)ccc1OCC#N | 3.55 µM [rising, partial curve, poor fit] | 
35 | Cc1cc(C(=O)CSc2nc3ccccc3o2)c(C)n1CC1CCCO1 (stereo not given) | 3.98 µM [rising, full curve] | 5.62 µM [rising, full curve]
36 | Cn1ncc2c(NNC(=O)Cc3ccccc3)ncnc21 | 0.0891 µM [falling, full curve, poor fit] | 
37 | Cc1nc(N2CCOCC2)c2cc(-c3ccccc3)sc2n1 | 35.5 µM [rising, single point] | 
38 | CCOC(=O)C(NC(C)=O)C(=O)Nc1ccc(C(C)C)cc1 (stereo not given) | 8.91 µM [falling, partial curve] | 12.6 µM [falling, partial curve]
39 | O=C(NCCO)c1ccc(Cl)c(Cl)c1 |  | 25.1 µM [rising, single point]
40 | CN1c2ccccc2-c2nc3ccccc3n2C1c1cccs1 (stereo not given) |  | 0.141 µM [falling, full curve, poor fit]

Row | Structure (SMILES) | AC50 [1] | AC50 [2]
41 | Cc1ccc(C2Oc3ccccc3C3=C2C(c2cccs2)n2ncnc2N3)cc1 (stereo not given) | 3.55 µM [falling, partial curve, poor fit] | 3.55 µM [falling, partial curve]
42 | COc1ccc(Cn2ccnc2SCC(=O)NC2CCCC2)cc1 |  | 2.82 µM [rising, partial curve, poor fit]
43 | COCCCNC(=O)c1ccc(Cn2c(=O)[nH]c3ccccc3c2=O)cc1 | 14.1 µM [rising, partial curve] | 
44 | O=C(O)CC(C(=O)NCc1ccccc1)C1CCCO1 (stereo not given) | 0.178 µM [falling, full curve, poor fit] | 
45 | Cc1ccccc1N1C(=O)c2ccccc2N2C(=O)c3ccccc3C12 (stereo not given) | 20 µM [rising, single point] | 15.8 µM [rising, single point]
46 | CCOC(=O)c1c(C)oc2c1c(C=NCc1ccccn1)c(O)c1ccccc12 |  | 35.5 µM [falling, single point]
47 | COc1ccc(C(=O)C(C)OC(=O)c2cccc(S(=O)(=O)Nc3cc(Cl)c(OC)cc3OC)c2)cc1 (stereo not given) | 10 µM [rising, partial curve] | 3.98 µM [rising, full curve, poor fit]
48 | Cc1noc(C)c1CSc1ncnc2ccccc12 |  | 15.8 µM [falling, single point]
49 | COc1ccc2c(c1)CC(C(=O)Nc1cccc(C)c1C)CO2 (stereo not given) | 0.282 µM [rising, full curve, poor fit] | 
50 | CCCc1nc2scc(-c3ccc(C)cc3)c2c(=O)n1N | 35.5 µM [rising, single point] | 
51 | O=C(O)CCCCCNS(=O)(=O)c1cccc2c1C(=O)c1ccccc1C2=O | 35.5 µM [rising, single point] | 
52 | C=CCn1c(SCC(=O)Nc2cccnc2Cl)nnc1-c1ccccc1F | 15.8 µM [rising, single point] | 11.2 µM [rising, single point]
53 | N#CC(Cc1ccc(OC(F)F)cc1)c1nc2ccccc2[nH]1 (stereo not given) | 0.501 µM [rising, full curve] | 
54 | CSc1ccc(CCNC(=O)c2ccc3c(c2)nc2n3CCCCC2)cc1 | 2.51 µM [falling, full curve, poor fit] | 
55 | C=CCNC(=S)NNC(=O)c1cc(O)ccc1O | 0.00316 µM [falling, full curve, poor fit] | 
56 | COc1cc(/C=C(/C(=O)c2cccs2)c2nc3ccccc3[nH]2)cc(OC)c1O | 31.6 µM [rising, single point] | 3.16 µM [falling, single point]
57 | COc1ccccc1N1CCN(C(=O)CCc2ccc(S(=O)(=O)NCC(C)C)cc2)CC1 | 17.8 µM [rising, single point] | 10 µM [rising, partial curve]
58 | O=c1c(=O)n(-c2ccccc2)ccn1Cc1cccc(C(F)(F)F)c1 | 1.78 µM [rising, full curve] | 3.55 µM [rising, full curve, poor fit]
